Results taken from paper PMC3784504.
Results are given in words; binding and its absence hold for the method and conditions named. Binding calls can cover weak binding; strength is not graded here. Sequences can lack the tags named with a protein. For part of these data: In cells and extracts the contact can be indirect.

Key:
[1] = target: T1, histone chaperone NAP1 (Drosophila (endogenous in embryos and S2 cells)) (UniProt Q9W1G7); assay: SEC; Sephacryl S-300 of the POROS-heparin 0.4 M KCl fraction of embryo nuclear extract, HEMG/100 pH 7.6; fractions immunoblotted
T1 sequence: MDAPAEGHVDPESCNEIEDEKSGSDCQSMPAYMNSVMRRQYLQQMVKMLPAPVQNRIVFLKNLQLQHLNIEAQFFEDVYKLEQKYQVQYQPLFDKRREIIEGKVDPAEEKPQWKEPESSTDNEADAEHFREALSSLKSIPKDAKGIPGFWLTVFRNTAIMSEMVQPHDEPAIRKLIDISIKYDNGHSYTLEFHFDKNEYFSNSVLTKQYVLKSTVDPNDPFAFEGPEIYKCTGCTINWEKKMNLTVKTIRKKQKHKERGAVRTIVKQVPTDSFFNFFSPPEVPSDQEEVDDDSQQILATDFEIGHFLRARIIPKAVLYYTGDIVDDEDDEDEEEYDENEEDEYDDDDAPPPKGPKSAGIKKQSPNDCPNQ

[2] = target: T1, histone chaperone NAP1 (Drosophila (endogenous in embryos and S2 cells)); assay: co-IP; IPs of NAP1 and SA from pooled high molecular weight S-300 fractions 12-14 (about 1.5 MDa) of embryo nuclear extract; immunoblot
[3] = target: T1, histone chaperone NAP1 (Drosophila (endogenous in embryos and S2 cells)); assay: co-IP; IP of SA, NAP1 or PP2A from Drosophila embryo nuclear extract; washes with 600 mM KCl, 0.1% NP40; immunoblot; mock IP with pre-immune serum
[4] = target: T1, histone chaperone NAP1 (Drosophila (endogenous in embryos and S2 cells)); assay: co-IP; IPs of NAP1 and SA from pooled lower molecular weight S-300 fractions 27-29 (about 300 kDa) of embryo nuclear extract; immunoblot

Measured: binding

cohesin subunit RAD21 (Drosophila (endogenous in embryos))
binds: [1] | [2] | [3]

cohesin subunit stromalin (SA)
binds: [4] | [1] | [2]
